Calls as published in the ROBIN set (doi:10.1002/anie.202211358).

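The test is a small-molecule microarray: each compound is printed twice on a reactive slide, and binding shows as fluorescence of the labelled oligonucleotide after washing. For the PreQ1, TPP and SAM-II riboswitches the laboratory earlier reported (doi:10.1038/s41467-019-09493-3) 1 µM RNA, 2 h, and a rule that included a mean Z-score above 3 (spot signal-to-noise against the whole library), a score well above that on a control array, and duplicate spots agreeing (coefficient of variation under 100). The data file gives only the calls; its cut-offs may differ, and compounds hitting several targets are kept. A missing hit is not proof of no binding, and a hit is not a measured affinity.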 A compound is marked active if it was called a hit and inactive if it was screened but was not. This is an unselected part of the compounds tested. A target missing from an entry has no call listed here.

Targets (5′ to 3′):
PreQ1: PreQ1 riboswitch RNA pseudoknot, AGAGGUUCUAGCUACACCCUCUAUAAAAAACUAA. From B. subtilis. About 24,000 compounds screened, about 170 hits.
SAM-II: SAM-II riboswitch RNA pseudoknot, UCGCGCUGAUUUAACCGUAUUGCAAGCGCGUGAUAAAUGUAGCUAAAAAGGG. About 21,000 compounds screened, about 200 hits.
TPP: TPP riboswitch RNA three-way junction, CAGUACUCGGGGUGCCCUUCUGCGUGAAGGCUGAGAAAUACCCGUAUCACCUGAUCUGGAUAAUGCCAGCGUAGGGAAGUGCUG. About 24,000 compounds screened, about 160 hits.

SMILES: CCCn1nc(C)c(CNC2CCN(CC(C)C)CC2)c1C
PreQ1: inactive
SAM-II: inactive
TPP: inactive

SMILES: Nc1c(C(=O)Nc2ccc(Oc3ccccc3)cc2)sc2ncccc12
PreQ1: inactive
SAM-II: inactive
TPP: inactive

SMILES: O=C(O)C1CN(C(=O)C(c2ccccc2)c2ccccc2)CCN1 (configuration not stated)
PreQ1: inactive
SAM-II: inactive
TPP: inactive

SMILES: CCOc1ccc(CNCCCSc2nnnn2-c2ccccc2)cc1
PreQ1: inactive
TPP: inactive

SMILES: CCOC(=O)c1cnc2c(C#N)cccc2c1Nc1ccc(Cl)cc1
PreQ1: inactive
SAM-II: inactive
TPP: inactive

SMILES: COc1cc(-c2nc(COc3cccnc3N)c(C)o2)cc2c1OCO2
PreQ1: inactive
SAM-II: inactive
TPP: inactive

SMILES: CNC(=O)[C@@H]1C[C@@H](N)CN1C(=O)CCSc1ccc2c(c1)OCCO2
PreQ1: inactive
SAM-II: inactive
TPP: inactive

SMILES: COc1c(C)c2c(c(O)c1CC=C(C)CCC(=O)O)C(=O)OC2
PreQ1: inactive
SAM-II: inactive
TPP: inactive

SMILES: CCCC1(CO)CCCN(Cc2cc(=O)[nH]c(=O)[nH]2)C1 (configuration not stated)
PreQ1: inactive
SAM-II: inactive
TPP: inactive

SMILES: CN(CC1CCCN(CCc2ccc(Cl)cc2)C1)C(=O)c1cc(CO)ccn1 (configuration not stated)
PreQ1: inactive
SAM-II: inactive
TPP: inactive

SMILES: COC(=O)c1cccc(Nc2c(-c3ccccc3)nc3cnccn23)c1
PreQ1: inactive
TPP: inactive

SMILES: Cc1cccc(-n2nnc(-c3nc(-c4ccc(F)cc4)no3)c2N)c1
PreQ1: inactive
TPP: inactive

SMILES: CCCCNc1cc(C)nc2nc(-c3ccc(OC)cc3)nn12
PreQ1: inactive
TPP: inactive

SMILES: CC1=C(C(=O)OC(C)(C)C)C2(C(=O)Nc3ccccc32)C(C#N)=C(N)O1 (configuration not stated)
PreQ1: inactive
SAM-II: inactive
TPP: inactive

SMILES: COc1ccc(CNc2nc3cc(C)ccc3cc2-c2noc(C)n2)cc1OC
PreQ1: inactive
TPP: inactive

SMILES: Nc1ccc(-c2cn3ccsc3n2)cc1
PreQ1: inactive
SAM-II: inactive
TPP: inactive

SMILES: C(=Cc1ccc(/C=C/c2ccccc2)nn1)c1ccccc1
PreQ1: inactive
SAM-II: inactive
TPP: inactive

SMILES: Cc1ccc(OCCCCn2c(CO)nc3ccccc32)c(C)c1
PreQ1: inactive
SAM-II: inactive
TPP: inactive

SMILES: O=c1cc(N2CCNCC2)cnn1Cc1noc(-c2ccco2)n1
PreQ1: inactive
SAM-II: inactive
TPP: inactive

SMILES: Cc1cc(N2CCN(c3nnc(C4CCC4)o3)CC2)nc(N)n1
PreQ1: inactive
SAM-II: inactive
TPP: inactive

Some entries from above, unchanged:

| SMILES | PreQ1 | SAM-II | TPP |
|---|---|---|---|
| `COc1c(C)c2c(c(O)c1CC=C(C)CCC(=O)O)C(=O)OC2` | inactive | inactive | inactive |
| `O=c1cc(N2CCNCC2)cnn1Cc1noc(-c2ccco2)n1` | inactive | inactive | inactive |